Experimental findings from the supplement of paper PMC12819154, “High-throughput peptide-centric local stability assay extends protein–ligand identification to membrane proteins, tissues and bacteria” (Nature Structural & Molecular Biology, 2025) are described below.

Sequences of proteins named here, by UniProt entry; tags and fusion partners are left off. A change or cut given only in a name is not applied to a line headed by its entry.
UniProt Q9H3E2: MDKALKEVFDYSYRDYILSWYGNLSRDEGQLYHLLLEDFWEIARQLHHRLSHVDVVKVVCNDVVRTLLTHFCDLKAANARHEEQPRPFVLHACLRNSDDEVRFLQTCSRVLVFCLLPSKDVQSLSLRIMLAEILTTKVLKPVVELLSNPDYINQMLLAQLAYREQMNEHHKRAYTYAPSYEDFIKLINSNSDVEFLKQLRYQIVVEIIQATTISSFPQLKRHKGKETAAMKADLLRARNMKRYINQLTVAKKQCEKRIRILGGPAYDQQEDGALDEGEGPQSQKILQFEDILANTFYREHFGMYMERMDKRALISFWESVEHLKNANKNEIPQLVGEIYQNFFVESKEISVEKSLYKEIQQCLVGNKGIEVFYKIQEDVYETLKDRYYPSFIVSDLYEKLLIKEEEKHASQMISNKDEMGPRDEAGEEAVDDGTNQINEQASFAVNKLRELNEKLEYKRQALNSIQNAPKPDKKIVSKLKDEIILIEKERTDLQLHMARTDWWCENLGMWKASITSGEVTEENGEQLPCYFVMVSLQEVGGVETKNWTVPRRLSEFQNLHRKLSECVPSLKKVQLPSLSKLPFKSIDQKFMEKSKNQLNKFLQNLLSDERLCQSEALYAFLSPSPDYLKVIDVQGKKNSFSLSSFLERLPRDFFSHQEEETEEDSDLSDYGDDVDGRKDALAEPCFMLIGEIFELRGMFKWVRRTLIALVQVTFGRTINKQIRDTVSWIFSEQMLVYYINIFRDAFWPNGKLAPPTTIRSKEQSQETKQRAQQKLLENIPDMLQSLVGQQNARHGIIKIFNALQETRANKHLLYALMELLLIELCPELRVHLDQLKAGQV
UniProt Q9BXP5: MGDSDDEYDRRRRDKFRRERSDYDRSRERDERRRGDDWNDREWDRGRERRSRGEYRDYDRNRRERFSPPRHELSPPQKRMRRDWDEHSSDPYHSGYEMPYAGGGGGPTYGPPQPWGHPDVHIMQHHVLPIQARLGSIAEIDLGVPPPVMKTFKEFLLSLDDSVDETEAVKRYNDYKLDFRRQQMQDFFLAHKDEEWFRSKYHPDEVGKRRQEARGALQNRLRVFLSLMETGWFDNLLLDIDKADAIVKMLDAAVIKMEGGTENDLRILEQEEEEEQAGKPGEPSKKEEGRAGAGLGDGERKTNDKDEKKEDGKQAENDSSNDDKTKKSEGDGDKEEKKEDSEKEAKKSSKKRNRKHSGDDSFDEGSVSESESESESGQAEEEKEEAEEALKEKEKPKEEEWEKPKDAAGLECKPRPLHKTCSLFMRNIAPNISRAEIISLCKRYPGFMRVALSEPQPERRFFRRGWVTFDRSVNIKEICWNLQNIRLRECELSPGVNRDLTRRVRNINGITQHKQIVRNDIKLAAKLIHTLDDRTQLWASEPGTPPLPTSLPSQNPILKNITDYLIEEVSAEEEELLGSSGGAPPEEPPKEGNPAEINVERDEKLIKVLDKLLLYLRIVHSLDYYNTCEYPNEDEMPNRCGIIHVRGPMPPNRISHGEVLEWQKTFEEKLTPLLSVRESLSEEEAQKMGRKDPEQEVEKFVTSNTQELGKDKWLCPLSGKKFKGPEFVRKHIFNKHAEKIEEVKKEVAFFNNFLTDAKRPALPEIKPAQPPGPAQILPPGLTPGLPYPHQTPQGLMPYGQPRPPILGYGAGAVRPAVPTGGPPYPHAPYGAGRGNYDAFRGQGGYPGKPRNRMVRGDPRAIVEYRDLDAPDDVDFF
UniProt Q9C0B7: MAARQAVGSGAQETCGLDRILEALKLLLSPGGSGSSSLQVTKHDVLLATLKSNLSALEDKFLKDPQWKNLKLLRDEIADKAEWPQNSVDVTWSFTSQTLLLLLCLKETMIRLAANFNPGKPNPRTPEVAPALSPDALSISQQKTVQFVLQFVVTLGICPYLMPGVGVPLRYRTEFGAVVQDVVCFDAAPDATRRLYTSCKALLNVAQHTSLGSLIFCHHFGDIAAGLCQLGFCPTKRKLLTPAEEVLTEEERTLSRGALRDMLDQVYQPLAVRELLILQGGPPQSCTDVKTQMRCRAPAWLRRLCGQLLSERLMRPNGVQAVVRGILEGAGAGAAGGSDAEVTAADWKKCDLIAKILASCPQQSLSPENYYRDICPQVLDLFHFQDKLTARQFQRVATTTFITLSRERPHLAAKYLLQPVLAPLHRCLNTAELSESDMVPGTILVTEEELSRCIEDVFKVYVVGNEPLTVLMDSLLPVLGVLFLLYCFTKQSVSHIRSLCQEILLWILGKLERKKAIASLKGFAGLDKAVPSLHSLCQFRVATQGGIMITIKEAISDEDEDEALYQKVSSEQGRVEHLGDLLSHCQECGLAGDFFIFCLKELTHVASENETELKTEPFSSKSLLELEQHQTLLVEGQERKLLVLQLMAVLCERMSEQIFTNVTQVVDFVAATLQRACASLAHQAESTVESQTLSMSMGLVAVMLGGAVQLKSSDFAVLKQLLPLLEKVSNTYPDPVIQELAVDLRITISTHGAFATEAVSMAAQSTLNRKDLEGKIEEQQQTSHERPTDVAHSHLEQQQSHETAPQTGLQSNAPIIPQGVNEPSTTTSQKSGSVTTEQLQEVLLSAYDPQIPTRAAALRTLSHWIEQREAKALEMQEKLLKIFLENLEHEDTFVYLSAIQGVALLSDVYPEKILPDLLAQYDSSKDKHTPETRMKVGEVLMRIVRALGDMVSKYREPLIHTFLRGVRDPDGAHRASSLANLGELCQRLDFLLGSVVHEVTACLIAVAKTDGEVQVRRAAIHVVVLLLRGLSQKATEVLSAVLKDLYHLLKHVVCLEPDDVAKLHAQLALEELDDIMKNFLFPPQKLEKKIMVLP
UniProt Q9C0H5: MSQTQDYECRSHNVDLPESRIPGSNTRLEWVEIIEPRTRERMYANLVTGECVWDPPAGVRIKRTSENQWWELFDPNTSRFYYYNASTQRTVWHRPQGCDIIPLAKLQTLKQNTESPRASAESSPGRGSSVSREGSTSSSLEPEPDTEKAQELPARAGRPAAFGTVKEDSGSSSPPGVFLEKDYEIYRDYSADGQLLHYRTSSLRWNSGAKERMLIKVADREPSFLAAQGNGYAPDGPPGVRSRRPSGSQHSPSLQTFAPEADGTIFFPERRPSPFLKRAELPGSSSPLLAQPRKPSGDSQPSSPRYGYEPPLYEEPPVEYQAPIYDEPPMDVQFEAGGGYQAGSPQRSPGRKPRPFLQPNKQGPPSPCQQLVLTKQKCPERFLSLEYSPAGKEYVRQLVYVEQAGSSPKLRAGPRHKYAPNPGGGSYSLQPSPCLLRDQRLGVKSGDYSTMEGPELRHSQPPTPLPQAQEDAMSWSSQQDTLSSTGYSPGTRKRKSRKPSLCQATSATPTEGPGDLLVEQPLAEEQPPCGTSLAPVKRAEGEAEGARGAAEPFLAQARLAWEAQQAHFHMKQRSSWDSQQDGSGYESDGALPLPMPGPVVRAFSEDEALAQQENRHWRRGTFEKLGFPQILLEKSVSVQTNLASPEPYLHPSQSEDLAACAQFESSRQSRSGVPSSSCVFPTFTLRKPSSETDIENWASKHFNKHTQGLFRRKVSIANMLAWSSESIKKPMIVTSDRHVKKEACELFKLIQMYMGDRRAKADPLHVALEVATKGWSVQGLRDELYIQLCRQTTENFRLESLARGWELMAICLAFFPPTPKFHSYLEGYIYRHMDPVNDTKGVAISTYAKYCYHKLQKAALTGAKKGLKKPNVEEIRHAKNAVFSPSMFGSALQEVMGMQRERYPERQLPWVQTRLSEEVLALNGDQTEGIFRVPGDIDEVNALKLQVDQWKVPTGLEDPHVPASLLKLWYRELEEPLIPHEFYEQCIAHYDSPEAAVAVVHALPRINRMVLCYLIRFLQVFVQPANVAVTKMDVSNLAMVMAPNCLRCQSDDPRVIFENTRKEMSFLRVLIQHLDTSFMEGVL
UniProt Q9H0B6: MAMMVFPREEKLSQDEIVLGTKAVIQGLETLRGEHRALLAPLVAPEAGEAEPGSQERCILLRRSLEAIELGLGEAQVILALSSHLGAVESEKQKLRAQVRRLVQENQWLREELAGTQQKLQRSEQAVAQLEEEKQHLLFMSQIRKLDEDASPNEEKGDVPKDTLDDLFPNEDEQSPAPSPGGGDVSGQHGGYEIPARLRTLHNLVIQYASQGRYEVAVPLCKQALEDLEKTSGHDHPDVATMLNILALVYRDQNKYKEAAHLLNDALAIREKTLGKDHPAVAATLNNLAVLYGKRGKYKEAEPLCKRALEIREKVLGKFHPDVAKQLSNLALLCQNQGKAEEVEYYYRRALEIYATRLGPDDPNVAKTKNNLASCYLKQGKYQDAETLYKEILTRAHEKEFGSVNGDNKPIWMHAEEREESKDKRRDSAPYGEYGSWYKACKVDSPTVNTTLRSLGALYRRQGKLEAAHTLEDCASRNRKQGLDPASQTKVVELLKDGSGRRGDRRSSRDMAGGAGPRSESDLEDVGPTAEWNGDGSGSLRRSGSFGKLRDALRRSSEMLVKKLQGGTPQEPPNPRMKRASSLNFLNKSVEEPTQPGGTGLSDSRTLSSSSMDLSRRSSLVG
UniProt Q9GZS1, whole entry: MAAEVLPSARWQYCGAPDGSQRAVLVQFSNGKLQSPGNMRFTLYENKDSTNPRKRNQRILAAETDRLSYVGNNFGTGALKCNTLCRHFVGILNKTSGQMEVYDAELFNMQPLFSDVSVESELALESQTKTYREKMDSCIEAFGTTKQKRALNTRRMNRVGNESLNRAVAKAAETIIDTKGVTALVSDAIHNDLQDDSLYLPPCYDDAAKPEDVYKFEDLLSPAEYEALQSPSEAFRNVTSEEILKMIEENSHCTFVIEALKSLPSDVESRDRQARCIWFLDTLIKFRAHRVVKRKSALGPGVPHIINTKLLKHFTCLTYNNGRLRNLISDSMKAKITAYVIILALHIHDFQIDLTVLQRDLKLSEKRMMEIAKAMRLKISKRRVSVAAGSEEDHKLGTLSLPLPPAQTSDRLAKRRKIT
UniProt Q9H0A8, whole entry: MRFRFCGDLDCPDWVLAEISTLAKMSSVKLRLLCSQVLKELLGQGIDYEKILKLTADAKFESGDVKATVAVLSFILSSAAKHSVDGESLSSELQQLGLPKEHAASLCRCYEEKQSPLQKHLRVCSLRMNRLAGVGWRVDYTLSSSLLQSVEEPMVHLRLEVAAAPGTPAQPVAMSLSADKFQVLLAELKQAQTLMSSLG
UniProt Q9H079: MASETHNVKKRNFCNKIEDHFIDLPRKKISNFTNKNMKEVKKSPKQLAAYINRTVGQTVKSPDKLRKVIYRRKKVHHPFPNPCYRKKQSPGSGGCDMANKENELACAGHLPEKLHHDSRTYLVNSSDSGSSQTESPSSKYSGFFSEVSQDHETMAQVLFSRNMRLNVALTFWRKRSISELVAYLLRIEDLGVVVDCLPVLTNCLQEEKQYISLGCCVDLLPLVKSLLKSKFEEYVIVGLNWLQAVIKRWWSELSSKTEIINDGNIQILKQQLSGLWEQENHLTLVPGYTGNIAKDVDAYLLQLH
UniProt Q9C0D3: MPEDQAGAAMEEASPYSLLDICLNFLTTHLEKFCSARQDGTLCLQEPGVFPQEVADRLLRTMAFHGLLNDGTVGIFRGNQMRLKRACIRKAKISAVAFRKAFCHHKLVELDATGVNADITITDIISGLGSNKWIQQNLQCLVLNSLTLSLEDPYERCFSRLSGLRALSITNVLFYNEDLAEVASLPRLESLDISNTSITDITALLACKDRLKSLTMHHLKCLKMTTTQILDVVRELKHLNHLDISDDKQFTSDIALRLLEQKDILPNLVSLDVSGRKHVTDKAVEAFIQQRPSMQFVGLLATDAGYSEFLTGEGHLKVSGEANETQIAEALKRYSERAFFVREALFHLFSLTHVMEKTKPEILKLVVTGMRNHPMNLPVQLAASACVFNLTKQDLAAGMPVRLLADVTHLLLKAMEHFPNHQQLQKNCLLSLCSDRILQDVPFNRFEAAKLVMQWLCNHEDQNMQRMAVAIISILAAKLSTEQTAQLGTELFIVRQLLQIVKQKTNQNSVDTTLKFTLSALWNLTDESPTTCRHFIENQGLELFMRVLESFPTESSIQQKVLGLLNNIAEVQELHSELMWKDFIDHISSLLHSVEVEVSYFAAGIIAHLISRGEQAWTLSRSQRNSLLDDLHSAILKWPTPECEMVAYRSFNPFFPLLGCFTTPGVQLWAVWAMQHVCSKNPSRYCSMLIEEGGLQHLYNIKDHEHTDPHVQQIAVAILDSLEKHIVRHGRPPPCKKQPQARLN
UniProt Q9BXV9: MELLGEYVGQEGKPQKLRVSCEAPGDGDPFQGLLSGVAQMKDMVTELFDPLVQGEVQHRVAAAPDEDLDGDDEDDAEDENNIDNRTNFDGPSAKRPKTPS
UniProt Q9H444: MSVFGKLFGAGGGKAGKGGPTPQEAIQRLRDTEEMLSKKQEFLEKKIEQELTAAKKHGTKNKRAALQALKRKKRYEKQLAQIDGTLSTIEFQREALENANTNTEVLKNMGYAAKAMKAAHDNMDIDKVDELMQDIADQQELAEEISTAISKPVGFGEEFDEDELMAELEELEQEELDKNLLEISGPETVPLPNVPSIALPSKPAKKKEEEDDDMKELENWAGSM

This is one part of the list. Small differences around the control level are noise.

Compound in this assay: CN[C@@H]1C[C@H]2O[C@@](C)([C@@H]1OC)n1c3ccccc3c3c4c(c5c6ccccc6n2c5c31)C(=O)NC4 [staurosporine]
The assay is described as follows: log2 fold change of tryptic peptide abundance, ligand vs vehicle (limited proteolysis) (log2 ratio); higher = more trypsin-susceptible (destabilized). The following applies: ligand concentration: 20 uM; sample: K562 cleared lysate; digestion: 4 min, 22 C (HT-PELSA RT4min, Orbitrap Astral).
“SNX25 (peptide sequence: HEEQPRPFVLHACLR, peptide start residue: 81) (UniProt Q9H3E2)”: the log2 fold change was found to be 0.253. With “MRPL18 (peptide sequence: NVVACESIGR, peptide start residue: 121) (UniProt Q9H0U6)” the figure was 0.0844; with “KCTD10 (peptide sequence: SHHLDEDEER, peptide start residue: 282) (UniProt Q9H3F6)”, 0.245. With “UniProt Q9BXP5 (peptide sequence: HAEKIEEVKK, peptide start residue: 736)” the figure was 0.346. On to “UniProt Q9C0B7 (peptide sequence: AVPSLHSLCQFR, peptide start residue: 529)”, for which the log2 fold change is 0.163. Next, “ARHGAP39 (peptide sequence: TVWHRPQGCDIIPLAK, peptide start residue: 90) (UniProt Q9C0H5)”: -0.085; “KLC2 (peptide sequence: VDSPTVNTTLR, peptide start residue: 443) (UniProt Q9H0B6)”: 0.201.

For “POLR1E (peptide sequence: FTLYENKDSTNPR, peptide start residue: 41) (UniProt Q9GZS1)”, the log2 fold change was -0.288. With “GNB1L (peptide sequence: ILATAGWDHR, peptide start residue: 267) (UniProt Q9BYB4)” the figure was -0.418; with “UniProt Q9C0D4 (peptide sequence: QLIKPVPFCPVR, peptide start residue: 806)”, -0.519. Next, “KDM5D (peptide sequence: DLPVGLEELR, peptide start residue: 1060) (UniProt Q9BY66)”: -0.0591; “COMMD4 (peptide sequence: ELLGQGIDYEK, peptide start residue: 40) (UniProt Q9H0A8)”: 0.265; “UniProt Q9BY27 (peptide sequence: HQEAQQACRPHNLPVVQAAQQR, peptide start residue: 100)”: 0.551. Consider “UniProt Q9C0I1 (peptide sequence: SFLDGIYK, peptide start residue: 295)”, for which the log2 fold change came to 0.245. With “KATNBL1 (peptide sequence: QLAAYINR, peptide start residue: 46) (UniProt Q9H079)” the figure was -0.181; with “MED28 (peptide sequence: TGVDQCIQK, peptide start residue: 75) (UniProt Q9H204)”, -0.0649; with “MKRN2 (peptide sequence: QLSSQGTVR, peptide start residue: 363) (UniProt Q9H000)”, 0.509. Next, “HDAC8 (peptide sequence: IQQILNYIK, peptide start residue: 362) (UniProt Q9BY41)”: 0.288. For the target “ZYG11B (peptide sequence: HGRPPPCKK, peptide start residue: 729) (UniProt Q9C0D3)”, the log2 fold change was determined as 0.434. Turning to “HIPK2 (peptide sequence: TIIVPPLK, peptide start residue: 984) (UniProt Q9H2X6)”, the log2 fold change was -0.294. Next, “UniProt Q9H115 (peptide sequence: SIQGDGEGDGDLK, peptide start residue: 286)”: -0.407. “TSPYL2 (peptide sequence: SKEEAIIIVEDEDEDERESMR, peptide start residue: 164) (UniProt Q9H2G4)”: the log2 fold change stood at 0.374. With “UniProt Q9BXV9 (peptide sequence: TNFDGPSAK, peptide start residue: 86)” the figure was -0.0223. As to “NUCKS1 (peptide sequence: EEDEEPESPPEKK, peptide start residue: 207) (UniProt Q9H1E3)”, the log2 fold change is -0.44. As for “MRPL9 (peptide sequence: ENLELILTQSVENVGVR, peptide start residue: 92) (UniProt Q9BYD2)”, the log2 fold change turned out to be 0.142. Next, “MAK16 (peptide sequence: SSCPLANSQYATIKEEK, peptide start residue: 42) (UniProt Q9BXY0)”: 0.59; “CHMP4B (peptide sequence: KQEFLEK, peptide start residue: 39) (UniProt Q9H444)”: 0.13; “UniProt Q9H1K0 (peptide sequence: QCGRLDEVEVLTENLR, peptide start residue: 755)”: -0.26. With “NUF2 (peptide sequence: EIQESLKTK, peptide start residue: 235) (UniProt Q9BZD4)” the figure was 0.973.
